Experimental data: article doi:10.1101/2025.03.05.641563
No constants are given. Whether binding was seen depends on the method and setting. Some results given as binding are weak or reduced against the parent protein; the word gives no strength.

By UniProt entry, the sequences of proteins in these tests, tags left out. Residues count along the entry.
UniProt P07585, residues 31-359: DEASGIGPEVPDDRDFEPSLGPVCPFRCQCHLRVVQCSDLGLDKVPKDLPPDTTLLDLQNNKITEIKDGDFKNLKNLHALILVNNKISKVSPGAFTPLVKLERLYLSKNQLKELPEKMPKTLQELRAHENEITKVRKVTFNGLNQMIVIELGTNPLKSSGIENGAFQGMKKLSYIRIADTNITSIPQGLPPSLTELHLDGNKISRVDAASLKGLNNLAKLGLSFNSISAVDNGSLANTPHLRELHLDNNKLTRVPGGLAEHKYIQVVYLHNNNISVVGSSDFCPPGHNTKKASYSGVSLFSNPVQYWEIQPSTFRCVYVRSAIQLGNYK

Target: T1, Oncostatin M receptor (OSMR) MaMTH-HTS bait (UniProt Q99650)
T1 sequence: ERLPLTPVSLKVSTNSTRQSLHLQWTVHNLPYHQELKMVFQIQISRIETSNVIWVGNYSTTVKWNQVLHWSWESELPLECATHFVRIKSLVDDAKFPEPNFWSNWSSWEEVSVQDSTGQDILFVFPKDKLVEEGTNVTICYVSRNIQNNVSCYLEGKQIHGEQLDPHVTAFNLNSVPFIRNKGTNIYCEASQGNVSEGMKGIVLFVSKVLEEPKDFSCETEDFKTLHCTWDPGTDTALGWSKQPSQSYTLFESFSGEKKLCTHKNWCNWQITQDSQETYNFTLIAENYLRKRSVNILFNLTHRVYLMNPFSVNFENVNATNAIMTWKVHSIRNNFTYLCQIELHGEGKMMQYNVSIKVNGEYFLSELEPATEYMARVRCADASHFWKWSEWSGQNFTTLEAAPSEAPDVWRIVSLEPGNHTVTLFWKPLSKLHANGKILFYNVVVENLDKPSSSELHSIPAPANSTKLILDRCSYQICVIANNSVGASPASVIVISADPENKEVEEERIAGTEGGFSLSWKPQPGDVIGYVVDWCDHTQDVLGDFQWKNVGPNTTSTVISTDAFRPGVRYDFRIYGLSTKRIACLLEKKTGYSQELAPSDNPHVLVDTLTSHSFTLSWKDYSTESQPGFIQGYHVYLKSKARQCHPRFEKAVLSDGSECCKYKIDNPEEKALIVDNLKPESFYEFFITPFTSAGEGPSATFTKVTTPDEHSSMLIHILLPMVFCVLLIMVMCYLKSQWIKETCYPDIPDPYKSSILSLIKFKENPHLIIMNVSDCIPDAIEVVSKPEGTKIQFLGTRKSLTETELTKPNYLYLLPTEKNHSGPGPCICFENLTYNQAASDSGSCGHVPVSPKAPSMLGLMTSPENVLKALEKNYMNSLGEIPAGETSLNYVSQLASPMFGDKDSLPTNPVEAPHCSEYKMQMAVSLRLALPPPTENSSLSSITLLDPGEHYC
Experiment: two-hybrid

## EIF2C3 MaMTH-HTS prey (from UniProt Q9H9G7 1-860)
  binding: binds

## DCN MaMTH-HTS prey (from UniProt P07585 31-359)
  binding: binds

B1: IMMP2L MaMTH-HTS prey (protein, UniProt Q96T52 1-175)
chain: MAQSQGWVKRYIKAFCKGFFVAVPVAVTFLDRVACVARVEGASMQPSLNPGGSQSSDVVLLNHWKVRNFEVHRGDIVSLVSPKNPEQKIIKRVIALEGDIVRTIGHKNRYVKVPRGHIWVEGDHHGHSFDSNSFGPVSLGLLHAHATHILWPPERWQKLESVLPPERLPVQREEE
  binding: binds

B2: NAT8 MaMTH-HTS prey (protein, UniProt Q9UHE5 1-227)
chain: MAPCHIRKYQESDRQWVVGLLSRGMAEHAPATFRQLLKLPRTLILLLGGPLALLLVSGSWLLALVFSISLFPALWFLAKKPWTEYVDMTLCTDMSDITKSYLSERGSCFWVAESEEKVVGMVGALPVDDPTLREKRLQLFHLFVDSEHRRQGIAKALVRTVLQFARDQGYSEVILDTGTIQLSAMALYQSMGFKKTGQSFFCVWARLVALHTVHFIYHLPSSKVGSL
  binding: binds

B3: ST3GAL4 MaMTH-HTS prey (protein, UniProt Q11206 1-333)
chain: MVSKSRWKLLAMLALVLVVMVWYSISREDRYIELFYFPIPEKKEPCLQGEAESKASKLFGNYSRDQPIFLRLEDYFWVKTPSAYELPYGTKGSEDLLLRVLAITSSSIPKNIQSLRCRRCVVVGNGHRLRNSSLGDAINKYDVVIRLNNAPVAGYEGDVGSKTTMRLFYPESAHFDPKVENNPDTLLVLVAFKAMDFHWIETILSDKKRVRKGFWKQPPLIWDVNPKQIRILNPFFMEIAADKLLSLPMQQPRKIKQKPTTGLLAITLALHLCDLVHIAGFGYPDAYNKKQTIHYYEQITLKSMAGSGHNVSQEALAIKRMLEMGAIKNLTSF
  binding: binds

B4: CLEC2B MaMTH-HTS prey (protein, UniProt Q92478 1-149)
chain: MMTKHKKCFIIVGVLITTNIITLIVKLTRDSQSLCPYDWIGFQNKCYYFSKEEGDWNSSKYNCSTQHADLTIIDNIEEMNFLRRYKCSSDHWIGLKMAKNRTGQWVDGATFTKSFGMRGSEGCAYLSDDGAATARCYTERKWICRKRIH
  binding: binds

B5: CREB3 MaMTH-HTS prey (protein, UniProt O43889 1-371)
chain: MELELDAGDQDLLAFLLEESGDLGTAPDEAVRAPLDWALPLSEVPSDWEVDDLLCSLLSPPASLNILSSSNPCLVHHDHTYSLPRETVSMDLESESCRKEGTQMTPQHMEELAEQEIARLVLTDEEKSLLEKEGLILPETLPLTKTEEQILKRVRRKIRNKRSAQESRRKKKVYVGGLESRVLKYTAQNMELQNKVQLLEEQNLSLLDQLRKLQAMVIEISNKTSSSSTCILVLLVSFCLLLVPAMYSSDTRGSLPAEHGVLSRQLRALPSEDPYQLELPALQSEVPKDSTHQWLDGSDCVLQAPGNTSCLLHYMPQAPSAEPPLEWPFPDLFSEPLCRGPILPLQANLTRKGGWLPTGSPSVILQDRYSG
  binding: binds

B6: …2 MaMTH-HTS prey (protein, UniProt Q8N6G5 1-542)
chain: MPRRGLILHTRTHWLLLGLALLCSLVLFMYLLECAPQTDGNASLPGVVGENYGKEYYQALLQEQEEHYQTRATSLKRQIAQLKQELQEMSEKMRSLQERRNVGANGIGYQSNKEQAPSDLLEFLHSQIDKAEVSIGAKLPSEYGVIPFESFTLMKVFQLEMGLTRHPEEKPVRKDKRDELVEVIEAGLEVINNPDEDDEQEDEEGPLGEKLIFNENDFVEGYYRTERDKGTQYELFFKKADLTEYRHVTLFRPFGPLMKVKSEMIDITRSIINIIVPLAERTEAFVQFMQNFRDVCIHQDKKIHLTVVYFGKEGLSKVKSILESVTSESNFHNYTLVSLNEEFNRGRGLNVGARAWDKGEVLMFFCDVDIYFSAEFLNSCRLNAEPGKKVFYPVVFSLYNPAIVYANQEVPPPVEQQLVHKKDSGFWRDFGFGMTCQYRSDFLTIGGFDMEVKGWGGEDVHLYRKYLHGDLIVIRTPVPGLFHLWHEKRCADELTPEQYRMCIQSKAMNEASHSHLGMLVFREEIETHLHKQAYRTNSEAVG
  binding: binds

B7: GC MaMTH-HTS prey (protein, UniProt P02774 17-474)
chain: LERGRDYEKNKVCKEFSHLGKEDFTSLSLVLYSRKFPSGTFEQVSQLVKEVVSLTEACCAEGADPDCYDTRTSALSAKSCESNSPFPVHPGTAECCTKEGLERKLCMAALKHQPQEFPTYVEPTNDEICEAFRKDPKEYANQFMWEYSTNYGQAPLSLLVSYTKSYLSMVGSCCTSASPTVCFLKERLQLKHLSLLTTLSNRVCSQYAAYGEKKSRLSNLIKLAQKVPTADLEDVLPLAEDITNILSKCCESASEDCMAKELPEHTVKLCDNLSTKNSKFEDCCQEKTAMDVFVCTYFMPAAQLPELPDVELPTNKDVCDPGNTKVMDKYTFELSRRTHLPEVFLSKVLEPTLKSLGECCDVEDSTTCFNAKGPLLKKELSSFIDKGQELCADYSENTFTEYKKKLAERLKAKLPDATPTELAKLVNKHSDFASNCCSINSPPLYCDSEIDAELKNIL
  binding: binds

B8: GPBP1 MaMTH-HTS prey (protein, UniProt Q86WP2 1-473)
chain: MAQHDFAPAWLNFPTPPSSTKSSLNFEKHSENFAWTENRYDVNRRRHNSSDGFDSAIGRPNGGNFGRKEKNGWRTHGRNGTENINHRGGYHGGSSRSRSSIFHAGKSQGLHENNIPDNETGRKEDKRERKQFEAEDFPSLNPEYEREPNHNKSLAAGVWEYPPNPKSRAPRMLVIKKGNTKDLQLSGFPVVGNLPSQPVKNGTGPSVYKGLVPKPAAPPTKPTQWKSQTKENKVGTSFPHESTFGVGNFNAFKSTAKNFSPSTNSVKECNRSNSSSPVDKLNQQPRLTKLTRMRTDKKSEFLKALKRDRVEEEHEDESRAGSEKDDDSFNLHNSNSTHQERDINRNFDENEIPQENGNASVISQQIIRSSTFPQTDVLSSSLEAEHRLLKEMGWQEDSENDETCAPLTEDEMREFQVISEQLQKNGLRKNGILKNGLICDFKFGPWKNSTFKPTTENDDTETSSSDTSDDDDV
  binding: binds
